PubChem BioAssay AID1259282, Sanger Institute | 2017
This is one part, drawn at random, of 794 reagents tested. 11 of all reagents (1.4%) were called active. 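Calls flag knock-downs that lower viability without drug; drug synergy appears only in the synergy scores; exposure time not stated.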 Further read-outs or replicates are left out here. No sequences are given here. Not given: the amount of reagent, the time to read-out.

Purpose: 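siRNA screen across the kinome seeking drug combinations lethal to colorectal cancer cells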 (primary screen)
Cells: DIFI human colorectal cancer cell line
Reagent: siRNA pool against human genes
Challenge: anchor drug at a mild dose (BYL719 1 µM, cetuximab 5 µg/ml, trametinib 10 nM) or DMSO vehicle; exposure time not given
Measurement: 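Robust z-score and replicate-mean viability versus non-targeting pool without drug, plus a synergy score for each low-dose anchor drug (BYL719, cetuximab, trametinib)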
Reading the numbers: robust z-score, knock-down alone: higher = more viable cells than typical knock-down
Active means: 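Essential when the robust z-score of the knock-down without drug falls below -3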
Meaning of the calls: active = essential (knock-down alone, z below -3); inactive = not essential

{"Gene": "CHEK1", "robust z-score, knock-down alone": -2.94, "Call": "inactive"}
{"Gene": "HIPK3", "robust z-score, knock-down alone": 0.504, "Call": "inactive"}
{"Gene": "MYLK", "robust z-score, knock-down alone": -2.4, "Call": "inactive"}
{"Gene": "WIPF1", "robust z-score, knock-down alone": -4.08, "Call": "active"}
{"Gene": "STK32B", "robust z-score, knock-down alone": -0.0248, "Call": "inactive"}
{"Gene": "NUP98", "robust z-score, knock-down alone": -0.0337, "Call": "inactive"}
{"Gene": "CSNK1E", "robust z-score, knock-down alone": 0.0635, "Call": "inactive"}
{"Gene": "MAGI3", "robust z-score, knock-down alone": 0.715, "Call": "inactive"}
{"Gene": "ITPKB", "robust z-score, knock-down alone": 0.715, "Call": "inactive"}
{"Gene": "POLR2B", "robust z-score, knock-down alone": -2.64, "Call": "inactive"}
{"Gene": "CDC7", "robust z-score, knock-down alone": -0.0176, "Call": "inactive"}
{"Gene": "APC", "robust z-score, knock-down alone": -1.73, "Call": "inactive"}
{"Gene": "PRKCA", "robust z-score, knock-down alone": -0.0557, "Call": "inactive"}
{"Gene": "HK2", "robust z-score, knock-down alone": -3.22, "Call": "active"}
{"Gene": "RPS6KA5", "robust z-score, knock-down alone": -1.34, "Call": "inactive"}
{"Gene": "AKAP9", "robust z-score, knock-down alone": -1.09, "Call": "inactive"}
{"Gene": "DAPK3", "robust z-score, knock-down alone": -1.68, "Call": "inactive"}
{"Gene": "PTPN11", "robust z-score, knock-down alone": -1.94, "Call": "inactive"}
{"Gene": "MAP3K21", "robust z-score, knock-down alone": 0.171, "Call": "inactive"}
{"Gene": "MELK", "robust z-score, knock-down alone": 0.715, "Call": "inactive"}
{"Gene": "MET", "robust z-score, knock-down alone": -1.4, "Call": "inactive"}
{"Gene": "PANK1", "robust z-score, knock-down alone": 0.715, "Call": "inactive"}
{"Gene": "VRK2", "robust z-score, knock-down alone": -0.789, "Call": "inactive"}
{"Gene": "PRKCSH", "robust z-score, knock-down alone": 0.715, "Call": "inactive"}
{"Gene": "KCNH2", "robust z-score, knock-down alone": 0.715, "Call": "inactive"}
{"Gene": "PRKCH", "robust z-score, knock-down alone": -1.31, "Call": "inactive"}
{"Gene": "NRBP2", "robust z-score, knock-down alone": -0.799, "Call": "inactive"}
{"Gene": "DCLK1", "robust z-score, knock-down alone": 0.715, "Call": "inactive"}

Records above whose target name begins with M or m (5):
{"Gene": "MYLK", "robust z-score, knock-down alone": -2.4, "Call": "inactive"}
{"Gene": "MAGI3", "robust z-score, knock-down alone": 0.715, "Call": "inactive"}
{"Gene": "MAP3K21", "robust z-score, knock-down alone": 0.171, "Call": "inactive"}
{"Gene": "MELK", "robust z-score, knock-down alone": 0.715, "Call": "inactive"}
{"Gene": "MET", "robust z-score, knock-down alone": -1.4, "Call": "inactive"}
